± gives the standard deviation. The list shows a part of the results, in another mix than the full data. The uncertainty is large for many entries.
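Further: 1 nM active piRISC with 0.1 nM target library at 33 °C single turnover.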

The test system of the first assay is MIWI (PIWIL1) piRISC loaded with L1MC piRNA (30 nt). The assay can be described thus: pre-steady-state target cleavage rate (min^-1); MIWI and MILI are mouse PIWI proteins and EfPiwi is from a freshwater sponge; tags in brackets are library labels; higher = faster piRNA-guided slicing of the target. The conditions noted are these: guide: L1MC piRNA 5'p-UAACUAAAUACUAUGCAAGCUGUAGGUCCU; auxiliary factor: 500 nM mouse GTSF1. An outline of the steps: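 Cleave-'n-Seq measured uncleaved targets by sequencing after a transcribed, DNA-blocked target RNA library […] was mixed with 1 nM active affinity-purified piRISC holding one synthetic guide, with or without 500 nM GTSF1 partner protein, at 33 °C in HEPES–potassium acetate buffer for 0–8 or 0–960 min. Counts were normalised to depth and to weakly complementary targets, three trials were pooled, and k3 was capped at 0.0001 min^-1. A burst-and-steady-state fit gave the pre-steady-state cleavage rate.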
As for AGGACCUACAGGAAGCAUAGUAUUUACAAA, the “pre-steady-state target cleavage rate” value is 0.32 ± 0.064.

Turning to UCCACCUACAUCUUGCAUAGUAUUUAGUUA, the “pre-steady-state target cleavage rate” value was 0.85 ± 0.036.

As for UCGACCUACAUGCUUGCAUAGUAUUUAGUUA, the “pre-steady-state target cleavage rate” value turned out to be 0.913 ± 0.037.

On to UCGACCUACAGCUUGGAUAGUAUUUAGUUA, for which the “pre-steady-state target cleavage rate” value stood at 1.72 ± 0.055.

With UCCUGGAUGUCGAUGCAUAGUAUUUAGUAA, the “pre-steady-state target cleavage rate” value amounted to 0.00302 ± 0.004.

As to AGGACCUACAGCUUGCAUAGUAUAUUCAAA, the “pre-steady-state target cleavage rate” value stood at 0.419 ± 0.072.

With UCCACCUACAGCUUGGAUAGUAUUUAGUUA, the “pre-steady-state target cleavage rate” value turned out to be 1.44 ± 0.056.

In the case of UCCAGCUACAGCUUGCUUAGUAUUUAGUUA, the “pre-steady-state target cleavage rate” value came to 0.78 ± 0.039.

For “UCCACCUACAGCUUGCAUAGUAUUUAGUUA [g2:g27:cont:t1A]”, the “pre-steady-state target cleavage rate” value was found to be 0.987 ± 0.051.

Take UGCACCUACAGGUUGCAUAGUAUUUAGUUA: the “pre-steady-state target cleavage rate” value amounted to 0.859 ± 0.15.

Regarding UCCACCUUCAGGUUGCAUAGUAUUUAGUUA, the “pre-steady-state target cleavage rate” value was found to be 0.817 ± 0.1.

Staying with this assay, now noted: guide: L1MC piRNA 5'p-UAACUAAAUACUAUGCAAGCUGUAGGUCCU; auxiliary factor: none (no GTSF1).
In the case of UCGACCUACAGCAACCAUAGUAUUUUCAAA, the “pre-steady-state target cleavage rate” value worked out at 0.000202 ± 0.015.

As to AGGACCUACAGGAAGCAUAGUAUUUACAAA, the “pre-steady-state target cleavage rate” value was found to be 0.00101 ± 0.0064.

Regarding UCCACCUACAUCUUGCAUAGUAUUUAGUUA, the “pre-steady-state target cleavage rate” value turned out to be 0.0567 ± 0.0096.

In the case of “UGGACCUACAGCUUGCAUACAUAAAUCAAA [g12:g29:cont:t1A]”, the “pre-steady-state target cleavage rate” value came to 0.000169 ± 0.018.

For the sequence AGGACCUACAGCUUCGAUAGUAUUUACAAA, the “pre-steady-state target cleavage rate” value worked out at 0.000703 ± 0.0094.

For the sequence UGGACCUACAGCUACCAUAGUAUUUAGAAA, the “pre-steady-state target cleavage rate” value turned out to be 0.00029 ± 0.0084.

As for UCGACCUACAGCUACGAUAGUAUUUAGUAA, the “pre-steady-state target cleavage rate” value amounted to 0.000293 ± 0.01.

With UCGACCUACAUGCUUGCAUAGUAUUUAGUUA, the “pre-steady-state target cleavage rate” value turned out to be 0.0554 ± 0.012.

Consider UGGACCUACAGCUACCAUAGUAUUUAGUAA, for which the “pre-steady-state target cleavage rate” value amounted to 0.00191 ± 0.0027.

With UCGACCUACAGCUUGCAAUAGUAUUUAGUUA, the “pre-steady-state target cleavage rate” value came to 0.0017 ± 0.0045.

For UCGACCUACAGGUUGCAUAGUAUUUUCAAA, the “pre-steady-state target cleavage rate” value stood at 0.0013 ± 0.0033.

With UCGACCUACAGCUACCAUAGUAUUUUCAAA, the “pre-steady-state target cleavage rate” value is 0.000145 ± 0.018.

For the sequence UGCACCUACAGCUUGCAUAGUAUUUACAAA, the “pre-steady-state target cleavage rate” value turned out to be 0.00293 ± 0.0035.

With UCGACCUACAGCUACGAUAGUAUUUAGUUA, the “pre-steady-state target cleavage rate” value was determined as 0.000994 ± 0.0071.

As to UCCACCUACAGCUUCGUUAGUAUUUAGUUA, the “pre-steady-state target cleavage rate” value turned out to be 0.000442 ± 0.0057.

For UGGACCUACAGCUUGCAUAGAUAUUUCAAA, the “pre-steady-state target cleavage rate” value came to 0.000747 ± 0.0084.

With AGGACCUACAGCAACCAUAGUAUUUACAAA, the “pre-steady-state target cleavage rate” value amounted to 0.000625 ± 0.012.

As to AGGACCUACAGCUUGCAAUCUAUUUUCAAA, the “pre-steady-state target cleavage rate” value came out at 0.000558 ± 0.012.

Consider UCCUGGAUGUCGAUGCAUAGUAUUUAGUAA, for which the “pre-steady-state target cleavage rate” value stood at 0.00107 ± 0.0044.

Turning to AGGUGCUACAGCUUGCAUAGUAUUUACAAA, the “pre-steady-state target cleavage rate” value was 0.00252 ± 0.0027.

Regarding UCCUGGAACAGGAAGCAUAGUAUUUACAAA, the “pre-steady-state target cleavage rate” value is 0.000498 ± 0.013.

Take UCCACCUACAGCUUGGAUAGUAUUUAGUUA: the “pre-steady-state target cleavage rate” value came to 0.0469 ± 0.0082.

As for UCCAGCUACAGCUUGCUUAGUAUUUAGUUA, the “pre-steady-state target cleavage rate” value amounted to 0.0235 ± 0.004.

Take UCGACCUAGAGCUUGCAUAGUAUUUUCAAA: the “pre-steady-state target cleavage rate” value is 0.00154 ± 0.0036.

As for UCCACCUAGUCCUUGCAUAGUAUUUACAAA, the “pre-steady-state target cleavage rate” value amounted to 0.00207 ± 0.0024.

Consider UCCACCUACAGCUUCCAUAGUAUUUAGAAA, for which the “pre-steady-state target cleavage rate” value stood at 0.000964 ± 0.0089.

Regarding “UCCACCUACAGCUUGCAUAGUAUUUAGUUA [g2:g27:cont:t1A]”, the “pre-steady-state target cleavage rate” value was 0.0744 ± 0.015.

Take UCGACCUACAGCUUGCAUAGUAAAUACAAA: the “pre-steady-state target cleavage rate” value is 0.000931 ± 0.0065.

For UGCACCUACAGGUUGCAUAGUAUUUAGUUA, the “pre-steady-state target cleavage rate” value was found to be 0.0244 ± 0.0052.

Turning to AGGACCUACAGCUUGCAUAGUAAAAAGUAA, the “pre-steady-state target cleavage rate” value was 0.00149 ± 0.0052.

Consider UCCACCUACAGCUUGCAUUGUAUUUUCAAA, for which the “pre-steady-state target cleavage rate” value is 0.00117 ± 0.0058.

Regarding UCGACCUACAGCUUCGUUAGUAUUUAGUAA, the “pre-steady-state target cleavage rate” value was 0.00065 ± 0.0082.

With UCCACCUACAGCUUGCAUACUAUUUACAAA, the “pre-steady-state target cleavage rate” value came out at 0.00215 ± 0.0033.

Take UCCACCUACAGCUUCGUUAGUAUUUACAAA: the “pre-steady-state target cleavage rate” value is 0.00069 ± 0.01.

As to UCCACCUUCAGGUUGCAUAGUAUUUAGUUA, the “pre-steady-state target cleavage rate” value turned out to be 0.0279 ± 0.0047.

Take UCCUGGAUGUCGUUGCAUAGGAUUUAGUUA: the “pre-steady-state target cleavage rate” value was determined as 0.000897 ± 0.0086.

With UCCACCUACAGCUACCAUAGUAUUUUCAAA, the “pre-steady-state target cleavage rate” value is 0.000232 ± 0.013.

UGGACCUACAGCUUGCAUAGUUUUAGUUA: the “pre-steady-state target cleavage rate” value came to 0.000455 ± 0.0054.

These data come from the supplement of paper PMC10338343.
